Source: PubChem BioAssay AID1224830 (NIAID, 2016)
Shown is one part, drawn at random, of about 18,000 reagents tested. Of all reagents, about 2,900 (16%) got an active call. 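Calls are made per well; low scores hint the gene aids the LPS response, high scores that it dampens it.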 Repeated entries: four replicate wells of each siRNA pool.

- Assay: 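Host factors that control LPS-induced TNF expression in human macrophages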 (primary screen)
- Cell system: human THP-1 monocytic leukaemia cells, TNF dual-luciferase reporter clone, PMA-differentiated to macrophage-like cells
- Reagents: siRNA pool against human genes, 50 nM
- Timing: LPS for 4 h, given about 3 days after siRNA transfection
- Treatment: bacterial LPS (TLR4 ligand), 10 ng/ml
- Read-out: 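Ratio of firefly to renilla light, scaled to the plate median and expressed as a robust z-score per replicate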
- Reading the numbers: TNF reporter robust z-score: higher = stronger TNF reporter response to LPS
- Hit rule: 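Each well counts as active if its z-score is over 2.8 or under -1.5; controls are left without a call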

gene symbol,TNF reporter robust z-score,Call
TRIM60,-0.05,inactive
TRIM60,2.73,inactive
TRIM60,2.46,inactive
TRIM60,0.29,inactive
GOLGA8B,-1.27,inactive
GOLGA8B,-1.07,inactive
GOLGA8B,-0.72,inactive
GOLGA8B,-0.9,inactive
CDC23,0.89,inactive
CDC23,1.08,inactive
CDC23,0.02,inactive
CDC23,1.11,inactive
PGAP1,0.78,inactive
PGAP1,-0.48,inactive
PGAP1,-0.49,inactive
PGAP1,0,inactive
IRAK2,1.92,inactive
IRAK2,0.18,inactive
IRAK2,1.07,inactive
IRAK2,0.5,inactive
DCAF12L1,0.98,inactive
DCAF12L1,2.03,inactive
DCAF12L1,0.25,inactive
DCAF12L1,-0.57,inactive
LINC02915,-1,inactive
LINC02915,-0.14,inactive
LINC02915,0.2,inactive
LINC02915,-0.3,inactive
GPAM,0.59,inactive
GPAM,0.43,inactive
GPAM,0.71,inactive
GPAM,0.4,inactive
RFC3,0.36,inactive
RFC3,1.06,inactive
RFC3,-0.13,inactive
RFC3,1.73,inactive
CD40LG,0.35,inactive
CD40LG,-0.1,inactive
CD40LG,-0.98,inactive
CD40LG,-1.36,inactive
FAM50A,-0.51,inactive
FAM50A,0.54,inactive
FAM50A,1.11,inactive
FAM50A,-0.39,inactive
EAPP,-1.42,inactive
EAPP,-0.5,inactive
EAPP,-0.91,inactive
EAPP,1.86,inactive
OR7G2,-0.64,inactive
OR7G2,-1.08,inactive
OR7G2,0.05,inactive
OR7G2,-0.42,inactive
CENPT,0.03,inactive
CENPT,0.83,inactive
CENPT,-0.65,inactive
CENPT,2.53,inactive
PRSS1,0.02,inactive
PRSS1,0.37,inactive
PRSS1,0.25,inactive
PRSS1,0.66,inactive
FRG2B,1.07,inactive
FRG2B,1.69,inactive
FRG2B,0.29,inactive
FRG2B,1.39,inactive
ZNF17,0.81,inactive
ZNF17,1.86,inactive
ZNF17,0.59,inactive
ZNF17,1.52,inactive
HNF4A,-0.21,inactive
HNF4A,-1.03,inactive
HNF4A,-0.92,inactive
HNF4A,0.01,inactive
ZCCHC24,2.28,inactive
ZCCHC24,1.22,inactive
ZCCHC24,1.13,inactive
ZCCHC24,6.93,active
LRRN3,1.47,inactive
LRRN3,0.32,inactive
LRRN3,1.19,inactive
LRRN3,0.97,inactive
RTL10,1.05,inactive
RTL10,-0.16,inactive
RTL10,-0.19,inactive
RTL10,-0.75,inactive
ALYREF,3.45,active
ALYREF,0.73,inactive
ALYREF,1.01,inactive
ALYREF,2.12,inactive
OR2C1,-0.01,inactive
OR2C1,6.92,active
OR2C1,-0.31,inactive
OR2C1,1.75,inactive
CORO2B,1.25,inactive
CORO2B,1.36,inactive
CORO2B,1.87,inactive
CORO2B,1.53,inactive
PIP,-0.95,inactive
PIP,-0.84,inactive
PIP,-1.22,inactive
PIP,-0.19,inactive
CCDC28B,-0.1,inactive
CCDC28B,-1.5,inactive
CCDC28B,-1.32,inactive
CCDC28B,-1.31,inactive
CCDC28B,1.25,inactive
CCDC28B,0.65,inactive
CCDC28B,1.73,inactive
CCDC28B,1.76,inactive
PADI3,-1.27,inactive
PADI3,0.16,inactive
PADI3,-0.01,inactive
PADI3,-0.11,inactive
ZNF512B,-1.39,inactive
ZNF512B,-0.61,inactive
ZNF512B,-0.46,inactive
ZNF512B,-0.31,inactive
PITPNM2,-0.31,inactive
PITPNM2,-0.24,inactive
PITPNM2,-1.02,inactive
PITPNM2,-0.69,inactive
GRID2,0.13,inactive
GRID2,1.36,inactive
GRID2,1.43,inactive
GRID2,2.05,inactive
RPN2,0.71,inactive
RPN2,-0.26,inactive
RPN2,-0.29,inactive
RPN2,-1.91,active
NWD1,-0.52,inactive
NWD1,-0.17,inactive
NWD1,-1.68,active
NWD1,-1.24,inactive
BCL6B,-0.46,inactive
BCL6B,1.95,inactive
BCL6B,1.87,inactive
BCL6B,1.57,inactive
MAML1,-0.49,inactive
MAML1,-0.12,inactive
MAML1,-0.32,inactive
MAML1,-0.02,inactive

Entries listed so far whose gene name begins with I or i:
gene symbol,TNF reporter robust z-score,Call
IRAK2,1.92,inactive
IRAK2,0.18,inactive
IRAK2,1.07,inactive
IRAK2,0.5,inactive
